Laboratory results published in publication doi:10.1101/2020.09.25.312678.

Target: T1, WD repeat and SOCS box containing 1 (WSB1), wild type, FLAG-tagged (UniProt Q9Y6I7)
T1 sequence: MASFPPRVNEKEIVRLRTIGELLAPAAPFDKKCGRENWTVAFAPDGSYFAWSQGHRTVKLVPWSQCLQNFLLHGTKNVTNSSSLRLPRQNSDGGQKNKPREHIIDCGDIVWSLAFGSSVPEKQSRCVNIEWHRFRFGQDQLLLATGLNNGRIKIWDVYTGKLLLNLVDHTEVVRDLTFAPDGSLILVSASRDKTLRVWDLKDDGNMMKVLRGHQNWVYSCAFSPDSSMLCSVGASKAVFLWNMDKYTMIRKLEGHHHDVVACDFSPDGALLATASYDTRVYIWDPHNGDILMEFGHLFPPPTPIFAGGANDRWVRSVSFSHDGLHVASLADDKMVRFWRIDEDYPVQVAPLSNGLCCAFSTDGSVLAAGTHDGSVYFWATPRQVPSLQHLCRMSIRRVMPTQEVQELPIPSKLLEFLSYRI
Assay: co-IP

binding: no binding
Substance: AXIN1 deletion mutant D5 (Δ503-862), HA-tagged (domain or fragment)

These are yes or no findings as the source states them, for the method shown. In cells and extracts the contact can be indirect. Tags and fused reporters may be left off the sequences shown.
